Library screen at single concentrations

Sequences of proteins named here, by UniProt entry; tags and fusion partners are left off.
UniProt P9WPC5, whole entry: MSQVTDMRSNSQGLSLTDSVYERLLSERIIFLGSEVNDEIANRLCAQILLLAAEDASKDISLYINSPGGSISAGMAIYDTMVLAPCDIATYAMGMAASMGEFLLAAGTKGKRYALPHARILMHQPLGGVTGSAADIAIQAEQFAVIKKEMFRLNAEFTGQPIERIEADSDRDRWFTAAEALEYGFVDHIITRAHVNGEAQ
UniProt P9WPC3, whole entry partner: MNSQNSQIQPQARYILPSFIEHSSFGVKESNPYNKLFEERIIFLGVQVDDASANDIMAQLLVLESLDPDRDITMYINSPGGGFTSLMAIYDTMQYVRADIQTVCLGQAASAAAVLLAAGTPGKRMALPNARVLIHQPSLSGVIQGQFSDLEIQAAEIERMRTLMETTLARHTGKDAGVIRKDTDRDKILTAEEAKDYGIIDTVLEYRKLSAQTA
UniProt P9WNZ1, whole entry: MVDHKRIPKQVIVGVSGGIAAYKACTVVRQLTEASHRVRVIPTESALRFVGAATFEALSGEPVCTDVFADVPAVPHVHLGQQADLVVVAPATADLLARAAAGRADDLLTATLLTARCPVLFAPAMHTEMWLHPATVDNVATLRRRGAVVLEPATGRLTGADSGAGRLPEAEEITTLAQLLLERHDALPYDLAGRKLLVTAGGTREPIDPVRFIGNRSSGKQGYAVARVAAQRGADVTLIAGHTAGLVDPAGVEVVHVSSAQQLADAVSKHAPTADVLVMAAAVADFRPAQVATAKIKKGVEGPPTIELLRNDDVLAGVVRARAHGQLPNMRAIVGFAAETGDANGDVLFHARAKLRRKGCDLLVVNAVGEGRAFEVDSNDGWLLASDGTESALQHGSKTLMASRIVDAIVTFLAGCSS

Source: ChEMBL document CHEMBL3988442, “University of Dundee, Small-Polar-MMV Screening Library” (2021).

Values are the deposited “Percent Effect”, in %. The record does not define 0% and 100%; most values in the screen are far below 50% and negative numbers occur (in some assays of this library far below -100). Compounds were drawn at random from those tested, without regard to their results.

ClpP1P2: 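Protease assay of ClpP1P2, read by the AMC dye that it sets free. Target: ClpP1P2, Mycobacterium tuberculosis (UniProt P9WPC5 and UniProt P9WPC3). Tested at 50 µM. Direction is inferred from only a few compounds that gave an IC50; most scored high, so higher reads as stronger inhibition. Most other retested compounds had strongly negative values. About 69,000 compounds were tested under these conditions; 0.015% (about 10) showed 50% or more at least once.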
CoaBC: 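Enzyme assay of CoaBC with a phosphate dye (Biomol Green) read at 650 nm. Target: Coenzyme A biosynthesis protein CoaBC, Mycobacterium tuberculosis (UniProt P9WNZ1). Tested at 30 µM. Direction is inferred from only a few compounds that gave an IC50; most scored high, so higher reads as stronger inhibition. Most strong results did not repeat in a second test. Of about 67,000 compounds tested this way, about 40 (0.06%) reached 50% or more in at least one test.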

SMILES,ClpP1P2,CoaBC
CC(C)n1cc(N2Cc3nc(N4CCOCC4)ncc3C2=O)cn1,5.678,8.314
CN(C)CCN(C)C(=O)Nc1cc(F)cc(N2CCCC2)c1,-5.861,-22.88
Cc1ccc(CSc2nc(N)cc(NCCS(=O)(=O)N(C)C)n2)cc1,-1.946,5.484
Cn1nnc2c1CCN(Cc1ccco1)C2COCc1ccccc1 (centres unmarked),1.361,0.6536
N#Cc1cc(NC(=O)c2cscn2)ccc1N1CCC(O)CC1,-4.533,4.487
O=C(c1cocn1)N1CCC[C@]2(C[C@@H](Oc3ncccc3F)CO2)C1,-16.35,1.11
Cn1cnc2c1C(COCC1CC1)CN(c1ncccn1)C2 (centres unmarked),2.091,-6.914
O=C(C1CCC1)N1CCCn2nc(CNc3ncccn3)cc2C1,4.132,6.3
CCC1CN(CC(=O)NC(C)C)CCO1 (centres unmarked),-5.97,0
O=C(NCCCN1CCCCC1)c1n[nH]c(=O)c2ccccc12,-24.93,-0.4545
CCS(=O)(=O)CCNC(=O)c1cc2n(n1)CCCO2,-11.25,-7.407
NC(=O)C1CCN(c2nc3nccc(-c4ccccn4)c3c(=O)[nH]2)CC1,-32.54,4.723
CCC(CO)N(Cc1ccco1)C(=O)c1ccc(F)cc1Cl (centres unmarked),-8.974,1.029
CCn1ncc2c1C(COC)N(C(=O)Cc1cccs1)CC2 (centres unmarked),-8.075,4.198
CCc1ccc(CN2CCC3(CC2)C(=O)N(C)CCN3CC2CC2)cc1,-2.567,2.545
CCN(CC)CCNCC1CCOC(C)(C)C1 (centres unmarked),9.142,-2.24
c1cnc(NC[C@H]2OC[C@@H]3CCN(Cc4ccncc4)C[C@@H]32)nc1,-2.694,-8.508
CN(Cc1cnn(C)c1)C(=O)NCc1csc(Br)c1,11.93,3.035
Cc1nc2c(c(NC3CC3)n1)CCN(C(=O)C(C)(C)O)CC2,3.998,6.17
COc1nn(C)c2c1CCCN(S(=O)(=O)c1cccc(F)c1)C2,-11.64,1.869
CC(=O)N1CCN(C(=O)Nc2cnc3c(cnn3C(C)C)c2)CC1,-15.95,-1.276
Cc1cc(-n2c(C)cn(CN(C)CC3CC3)c2=O)no1,-6.426,-2.532
c1cnn(CCCO[C@@H]2CC[C@H]3[C@H]2OCCN3CC2CC2)c1,-12.47,-6.289
c1cc(CN2CCc3cncnc3C2)c2c(c1)OCCO2,-10.95,6.827
CSc1nc(N)c2c(n1)N=C1COC(O)=C1C2c1cccc(O)c1 (centres unmarked),-17.09,6.378
Cc1ccc(C(=O)N2CCc3ncc(Cn4cccn4)n3CC2)cn1,-9.204,1.85
CC(c1cccnc1)N1CCN(CCO)CC1 (centres unmarked),-0.01426,0.9828
Cc1nc(NC(=O)CCN2C(=O)c3ccccc3NC2C(C)C)sc1C (centres unmarked),-22.24,1.094
O=C(c1ccco1)N1C[C@H]2CCCN(C(=O)c3ccsc3)[C@H]2C1,5.88,0
O=C(O)CCc1ccc(S(=O)(=O)Nc2cnn(CC3CC3)c2)cc1,-2.899,-16.41
CCNC(=O)CNC(=O)Nc1cccc(Cl)c1SC(F)F,-15.52,-0.9615
Cc1ccc(C(=O)N2CCN(Cc3ccc(C#N)cc3)CC2)n1C,-21.08,0.2611
COc1cc(CC(O)CO)c(OC)c2c1OCO2 (centres unmarked),-1.348,10.63
O=C(CN1CCCCCC1)NCc1cccnc1Oc1ccccc1,-15.2,4.878
Cc1cc(N2CCC(c3ncc[nH]3)CC2)cc(C)n1,-30.18,8.738
Fc1cccc(CCN(c2ccc3nnnn3n2)C2CC2)c1,-7.383,-0.8065
Cc1nc2c(c(N(C)CC3Cc4ccccc4CN3C)n1)CCNCC2 (centres unmarked),-8.221,-12.9
COc1ccc(C)cc1-c1csc(Cn2ccc(=O)[nH]c2=O)n1,4.145,-2.439
NS(=O)(=O)CCNC(=O)c1cc2ccccc2nc1N1CCCC1,-0.09868,7.782
CC(C)CCN1C2(CCN(C(=O)C3(C)CC3)C2)c2ccccc2S1(=O)=O (centres unmarked),-13.14,-0.6165
c1cnc(-c2nc(CN3CCN(CC4CC4)CC3)cs2)nc1,-18.37,7.098
COCCc1ncc(CNC2(c3ccc(Cl)cc3Cl)CC2)cn1,9.633,1.703
FC(F)CN1CCOC(Cn2cccn2)C1 (centres unmarked),-5.887,-10.72
Cc1c(C)n(Cc2ccncc2)c2nc3c(c(N)c12)CCCCC3,9.8,19.52
CCN1CCC(CC(=O)NCC(O)c2ccc3ccccc3c2)CC1 (centres unmarked),9.134,6.291
COC(=O)c1cccc(CNC(=O)CC(F)(F)F)c1,-0.8275,6.41
O=C(NCCN1CCOCC1)c1cc(-c2ccc3c(c2)CCO3)n[nH]1,-0.69,-9.017
O=C(Cc1ccc2c(c1)OCC2)Nc1nn[nH]n1,-21.19,0.7264
O=C(NCc1nnc2n1CCCCC2)N1CCC2(CCCCC2)C1,-2.806,5.835
CCN1CCC2(CC1)CC(NC(=O)c1c[nH]cn1)c1ccccc1O2 (centres unmarked),4.216,2.217
Cc1cccc(CN2CCc3ncnc(C4CC4)c3CC2)n1,-5.213,7.916
CN(Cc1nnc(-c2ccco2)o1)CC1CCCN1c1cccnn1 (centres unmarked),23.35,8.718
CC(C)COC(C)C(=O)NCc1ccccc1Cn1ccnc1 (centres unmarked),-4.302,5.372
c1coc(-c2nc3c(c(NCc4n[nH]c5c4CCC5)n2)CCNCC3)c1,-4.628,-41.14
COc1ccc(CN2CCC3(CC2)CCN(c2ncccn2)CC3)cc1,-4.637,5.913
CO[C@H]1CN(C(=O)c2ccc(C)o2)[C@@H]2CCCO[C@H]12,-7.68,-1.961
Cc1noc(C2CCCN(C(=O)c3ccc(Br)cc3F)C2)n1 (centres unmarked),3.931,8.462

For reference, 6 entries once more:

* CSc1nc(N)c2c(n1)N=C1COC(O)=C1C2c1cccc(O)c1 (centres unmarked) | ClpP1P2: -17.09%; CoaBC: 6.378%
* Cc1ccc(CSc2nc(N)cc(NCCS(=O)(=O)N(C)C)n2)cc1 | ClpP1P2: -1.946%; CoaBC: 5.484%
* COc1nn(C)c2c1CCCN(S(=O)(=O)c1cccc(F)c1)C2 | ClpP1P2: -11.64%; CoaBC: 1.869%
* CC(=O)N1CCN(C(=O)Nc2cnc3c(cnn3C(C)C)c2)CC1 | ClpP1P2: -15.95%; CoaBC: -1.276%
* O=C(CN1CCCCCC1)NCc1cccnc1Oc1ccccc1 | ClpP1P2: -15.2%; CoaBC: 4.878%
* Cc1cc(-n2c(C)cn(CN(C)CC3CC3)c2=O)no1 | ClpP1P2: -6.426%; CoaBC: -2.532%